In PubChem BioAssay AID248 (DTP/NCI, 2004):
The list shows only some results of the screen, not a fair sample: it is rich in T/C values a quarter to a half above the control, in often repeated tests (any T/C) and in doses without a T/C. Other doses and runs of a compound stand elsewhere. T/C gives the treated animals as a percentage of the vehicle group. Some entries give survivors of the animals treated and no T/C: the source files T/C as zero there, which appears to mark a toxic dose or a test without result, not a measured value. Some doses without a T/C left all or most animals alive at the check, yet need not have been tolerated: survival well below the control is almost never listed, so the zero probably covers shortened survival too. Counts of survivors are from the toxicity check (mostly the fifth day) where no day follows; animals may have died later. Schedule codes are those of the source, read here as Q, the interval in days (D) or hours (H), X, the number of doses. Some schedule codes hold Z or #, which are not explained here. Some entries hold several experiments; the results are listed from low to high. For survival time, the PubChem record calls one and a half times the control and up active, and a quarter to a half above the control has no call in these data; cut-offs in other NCI protocols can differ. Some T/C values carry the count of animals alive at the toxicity check (mostly the fifth day); without a count, all were alive then.

Test system: L1210 leukemia ip in BDF1 mice, survival T/C
Assay: NCI In Vivo Anticancer Drug Screen. Data for tumor model L1210 Leukemia (intraperitoneal) in B6D2F1 (BDF1) mice
Settings: T/C endpoint: mean survival time, higher T/C = longer survival
[1] = dose: 400.0 mg/kg/injection, schedule: Q04DX002 (ip), vehicle: saline with Tween-80
[2] = dose: 400.0 mg/kg/injection, schedule: Q01DX009 (ip), vehicle: saline
[3] = dose: 100.0 mg/kg/injection, schedule: Q04DX002 (ip), vehicle: Klucel (hydroxypropylcellulose) (HPC)
[4] = dose: 135.0 mg/kg/injection, schedule: Q01DX Z (ip), vehicle: saline
[5] = dose: 400.0 mg/kg/injection, schedule: Q01DX001 (ip), vehicle: saline
[6] = dose: 200.0 mg/kg/injection, schedule: Q01DX001 (ip), vehicle: Klucel (hydroxypropylcellulose) (HPC)
[7] = dose: 400.0 mg/kg/injection, schedule: Q01DX001 (ip), vehicle: Klucel (hydroxypropylcellulose) (HPC)
[8] = dose: 400.0 mg/kg/injection, schedule: Q04DX003 (ip), vehicle: saline

**Q.** `CC(=O)[O][Sn]([CH2]C1CCCCC1)([CH2]C1CCCCC1)[CH2]C1CCCCC1` was tested. Which survivor count (dose: 25.0 mg/kg/injection, schedule: Q04DX002 (ip), vehicle: saline with Tween-80) did it give?
**A.** 1 of 3

**Q.** What about the survivor count (dose: 100.0 mg/kg/injection, schedule: Q04DX002 (ip), vehicle: saline with Tween-80) of the same molecule?
**A.** 0 of 3

**Q.** What about the survivor count (dose: 200.0 mg/kg/injection, schedule: Q04DX002 (ip), vehicle: saline with Tween-80) of the same molecule?
**A.** 0 of 3

**Q.** What about the survivor count [1] of the same molecule?
**A.** 0 of 3

**Q.** For `CC(CC#N)c1ccc[nH]1` (stereo unspecified), which survivor count (dose: 400.0 mg/kg/injection, schedule: Q01DX001 (ip), vehicle: carboxymethylcellulose (CMC)) is on record?
**A.** 0 of 4

**Q.** Which results are given for `NC(N)=N/N=C/c1ccccc1` (tested in a mixture with another compound)?
**A.** survivor count (dose: 100.0 mg/kg/injection, schedule: Q04DX003 (ip), vehicle: acetone): 4 of 6; survivor count (dose: 200.0 mg/kg/injection, schedule: Q04DX003 (ip), vehicle: acetone): 0 of 6; survivor count (dose: 400.0 mg/kg/injection, schedule: Q04DX003 (ip), vehicle: acetone): 0 of 6

**Q.** Which T/C (dose: 86.0 mg/kg/injection, schedule: Q01DX Z (ip), vehicle: carboxymethylcellulose (CMC)) does the source give for `CN(C)[C@@H]1C(=O)C(C(=O)NCc2nc3[nH]cnc(=S)c3[nH]2)=C(O)[C@@]2(O)C(=O)C3=C(O)c4c(O)cccc4[C@@](C)(O)[C@H]3C[C@@H]12` here?
**A.** 125 % of control

**Q.** And the T/C (dose: 128.0 mg/kg/injection, schedule: Q01DX Z (ip), vehicle: carboxymethylcellulose (CMC))?
**A.** 149 % of control

**Q.** Which survivor count [2] does the source give for `CCCCCC(C)(C)O` here?
**A.** 3 of 6

**Q.** How did the survivor count (dose: 400.0 mg/kg/injection, schedule: Q01DX009 (ip), vehicle: Klucel (hydroxypropylcellulose) (HPC)) turn out when `CS(=O)(=O)Nc1ccccc1N` was run?
**A.** 2 of 6

**Q.** Which T/C [3] does the source give for `Cc1c[n+](CC(=O)c2ccccc2)cn1CC(=O)c1ccccc1` here?
**A.** 88, 100, 108 % of control

**Q.** And the survivor count [3]?
**A.** 1 of 3

**Q.** What about the survivor count (dose: 200.0 mg/kg/injection, schedule: Q04DX002 (ip), vehicle: Klucel (hydroxypropylcellulose) (HPC)) of the same molecule?
**A.** 0 of 6 and 2 of 3

**Q.** And the survivor count (dose: 400.0 mg/kg/injection, schedule: Q04DX002 (ip), vehicle: Klucel (hydroxypropylcellulose) (HPC))?
**A.** 0 of 3 and 1 of 6

**Q.** `C=CCc1ccc(OC(=O)Nc2cccc(C)c2)c(OC)c1` was tested. Which survivor count (dose: 300.0 mg/kg/injection, schedule: Q01DX009 (ip), vehicle: saline with Tween-80) did it give?
**A.** 3 of 6

**Q.** And the survivor count [1]?
**A.** 3 of 3

**Q.** What does the source list for `Clc1cccc(Cl)c1C[n+]1ccccc1`?
**A.** survivor count (dose: 37.5 mg/kg/injection, schedule: Q01DX001 (ip), vehicle: saline): 1 of 6; survivor count (dose: 75.0 mg/kg/injection, schedule: Q01DX001 (ip), vehicle: saline): 0 of 6; survivor count (dose: 150.0 mg/kg/injection, schedule: Q01DX001 (ip), vehicle: saline): 0 of 6; survivor count (dose: 300.0 mg/kg/injection, schedule: Q01DX001 (ip), vehicle: saline): 0 of 6

**Q.** How did the survivor count (dose: 2.7 mg/kg/injection, schedule: Q01DX Z (ip), vehicle: carboxymethylcellulose (CMC)) turn out when `O=C(NCCCCNC(=O)Nc1cccc(C2=NCCCN2)c1)Nc1cccc(C2=NCCCN2)c1` was run?
**A.** 0 of 6

**Q.** What about the survivor count (dose: 5.4 mg/kg/injection, schedule: Q01DX Z (ip), vehicle: carboxymethylcellulose (CMC)) of the same molecule?
**A.** 0 of 6

**Q.** With `CCOC(=O)C1(N)CCCC1` as the molecule, how does the T/C (dose: 53.0 mg/kg/injection, schedule: Q01DX Z (ip), vehicle: carboxymethylcellulose (CMC)) read?
**A.** 130 and 138 % of control

**Q.** For `CCCSc1ncnc2nc[nH]c12`, which T/C (dose: 125.0 mg/kg/injection, schedule: Q01DX009 (ip), vehicle: saline) is on record?
**A.** 126 % of control

**Q.** What about the survivor count (dose: 250.0 mg/kg/injection, schedule: Q01DX009 (ip), vehicle: saline) of the same molecule?
**A.** 2 of 6

**Q.** `CSc1cccc[n+]1[O-]` was tested. Which survivor count (dose: 200.0 mg/kg/injection, schedule: Q04DX002 (ip), vehicle: saline) did it give?
**A.** 3 of 3

**Q.** How did the survivor count (dose: 400.0 mg/kg/injection, schedule: Q04DX003 (ip), vehicle: Klucel (hydroxypropylcellulose) (HPC)) turn out when `O=C(/C=C(\c1ccccc1)N1CC1)c1ccccc1` was run?
**A.** 1 of 6

**Q.** Which T/C (dose: 8.9 mg/kg/injection, schedule: Q01DX Z (ip), vehicle: carboxymethylcellulose (CMC)) does the source give for `Cc1cc(N)c2cc(NC(=O)CCCCCCCCC(=O)Nc3ccc4nc(C)cc(N)c4c3)ccc2n1` here?
**A.** 128 % of control [5 of 6 alive]

**Q.** What about the T/C (dose: 30.0 mg/kg/injection, schedule: Q01DX Z (ip), vehicle: saline) of the same molecule?
**A.** 130 % of control

**Q.** What about the T/C [4] of the same molecule?
**A.** 127 % of control

**Q.** What about the survivor count [4] of the same molecule?
**A.** 6 of 6

**Q.** What about the survivor count (dose: 202.0 mg/kg/injection, schedule: Q01DX Z (ip), vehicle: saline) of the same molecule?
**A.** 2 of 6 and 4 of 6

**Q.** And the survivor count (dose: 303.0 mg/kg/injection, schedule: Q01DX Z (ip), vehicle: saline)?
**A.** 1 of 6 and 2 of 6

**Q.** What about the survivor count [5] of the same molecule?
**A.** 3 of 4

**Q.** With `C1CCC2C[N-]CCC2C1.C1CCC2C[N-]CCC2C1.C1CCC2C[N-]CCC2C1.C1CCC2C[N-]CCC2C1.[Cl][Rh][Cl]` (stereo unspecified) as the molecule, how does the survivor count (dose: 0.5 mg/kg/injection, schedule: Q01DX009 (ip), vehicle: citric acid) read?
**A.** 4 of 6

**Q.** And the survivor count (dose: 1.0 mg/kg/injection, schedule: Q01DX009 (ip), vehicle: citric acid)?
**A.** 3 of 6

**Q.** What about the survivor count (dose: 4.0 mg/kg/injection, schedule: Q01DX009 (ip), vehicle: citric acid) of the same molecule?
**A.** 4 of 6

**Q.** And the survivor count (dose: 6.25 mg/kg/injection, schedule: Q01DX009 (ip), vehicle: saline with Tween-80)?
**A.** 6 of 6

**Q.** What about the survivor count (dose: 8.0 mg/kg/injection, schedule: Q01DX009 (ip), vehicle: Klucel (hydroxypropylcellulose) (HPC)) of the same molecule?
**A.** 5 of 6

**Q.** What about the survivor count (dose: 8.0 mg/kg/injection, schedule: Q01DX009 (ip), vehicle: citric acid) of the same molecule?
**A.** 0 of 6

**Q.** What about the survivor count (dose: 12.5 mg/kg/injection, schedule: Q01DX009 (ip), vehicle: saline with Tween-80) of the same molecule?
**A.** 0 of 6

**Q.** And the survivor count (dose: 12.5 mg/kg/injection, schedule: Q04DX003 (ip), vehicle: saline with Tween-80)?
**A.** 3 of 6 and 4 of 6

**Q.** And the survivor count (dose: 25.0 mg/kg/injection, schedule: Q04DX003 (ip), vehicle: saline with Tween-80)?
**A.** 3 of 6

**Q.** What about the survivor count (dose: 50.0 mg/kg/injection, schedule: Q04DX003 (ip), vehicle: saline with Tween-80) of the same molecule?
**A.** 1 of 6

**Q.** What about the survivor count (dose: 100.0 mg/kg/injection, schedule: Q04DX003 (ip), vehicle: saline with Tween-80) of the same molecule?
**A.** 0 of 6

**Q.** And the survivor count (dose: 200.0 mg/kg/injection, schedule: Q04DX003 (ip), vehicle: saline with Tween-80)?
**A.** 0 of 6

**Q.** And the survivor count (dose: 400.0 mg/kg/injection, schedule: Q04DX003 (ip), vehicle: saline with Tween-80)?
**A.** 0 of 6

**Q.** Which survivor count (dose: 40.0 mg/kg/injection, schedule: Q01DX009 (ip), vehicle: saline) does the source give for `ClCCN1CCC2(CC1)SSC1(CCN(CCCl)CC1)S2` here?
**A.** 0 of 6

**Q.** What about the survivor count (dose: 80.0 mg/kg/injection, schedule: Q01DX001 (ip), vehicle: Klucel (hydroxypropylcellulose) (HPC)) of the same molecule?
**A.** 2 of 6

**Q.** And the survivor count (dose: 100.0 mg/kg/injection, schedule: Q01DX001 (ip), vehicle: Klucel (hydroxypropylcellulose) (HPC))?
**A.** 1 of 6

**Q.** What about the survivor count (dose: 100.0 mg/kg/injection, schedule: Q04DX003 (ip), vehicle: saline) of the same molecule?
**A.** 0 of 6

**Q.** What about the survivor count [6] of the same molecule?
**A.** 0 of 6

**Q.** And the survivor count (dose: 200.0 mg/kg/injection, schedule: Q04DX003 (ip), vehicle: saline)?
**A.** 0 of 6

**Q.** What about the survivor count [7] of the same molecule?
**A.** 0 of 6

**Q.** And the survivor count [8]?
**A.** 0 of 6

**Q.** How did the survivor count [5] turn out when `COc1ccc2c3c1OC1C(O)=CCC4[C@H](C2)N(C)CC[C@@]314` (stereo partly specified) was run?
**A.** 1 of 4

**Q.** Which survivor count [8] does the source give for `CC1(N)CC2CCC1C2` (stereo unspecified) here?
**A.** 2 of 6

**Q.** For `C=CCC(CC)(C(=O)O)C(=O)O`, which survivor count [2] is on record?
**A.** 3 of 6

**Q.** How did the survivor count [6] turn out when `O=C1C(Cl)=CC(Cl)=C/C1=N/Cl` was run?
**A.** 3 of 3

**Q.** What about the survivor count [7] of the same molecule?
**A.** 3 of 3

**Q.** Which survivor count (dose: 100.0 mg/kg/injection, schedule: Q01DX001 (ip), vehicle: saline with Tween-80) does the source give for `CC1(C)N=C(N)N=C(N)N1CCCOc1ccc(NC(=O)Nc2cccc(S(=O)(=O)F)c2)cc1` here?
**A.** 3 of 6

**Q.** `COC1/C=C/O[C@@]2(C)Oc3c(C)c(O)c4c(O)c(cc(O)c4c3C2=O)NC(=O)/C(C)=C\C=C\[C@H](C)C(O)[C@@H](C)[C@@H](O)[C@@H](C)[C@H](OC(C)=O)[C@@H]1C` (stereo partly specified) was tested. Which survivor count (dose: 256.0 mg/kg/injection, schedule: Q03HX040 (ip), vehicle: saline) did it give?
**A.** 10 of 10

**Q.** And the survivor count (dose: 1024.0 mg/kg/injection, schedule: Q03HX040 (ip), vehicle: saline)?
**A.** 8 of 10

**Q.** How did the survivor count [7] turn out when `O=C1NC(=O)C(Nc2ccccc2)(c2ccccc2)N1` (stereo unspecified) was run?
**A.** 1 of 6
